Reference: ChEMBL document CHEMBL2034922, “Identification, optimisation and in vivo evaluation of oxadiazole DGAT-1 inhibitors for the treatment of obesity and diabetes” (Bioorg Med Chem Lett, 2012)

Assay: Lipophilicity, log D of the compound
Settings: octanol/water

| SMILES | logD |
| --- | --- |
| O=C(Nc1ccc(N2CCOCC2)nc1)c1nnc(Nc2cccc(Oc3ccccc3)c2)o1 | > 4.2 |
| O=C(Nc1ccc(N2CCCCC2)cc1)c1nnc(Nc2ccccc2F)o1 | > 4.2 |
